For at least one compound, name, drawing or mass did not settle the structure.
Tested on: interaction of CUG repeat RNA with recombinant MBNL1 protein (MBNL1-PL)
Test: Beta-galactosidase enzymatic complementation assay
Type: binding, human
Conditions: (CUG)109 tethered to streptavidin plate
Protocol: FIGS. 33A and 33B. […] (CUG)109 transcripts are tethered to the surface of a streptavidin-coated microtiter plate using a capture oligonucleotide that is biotinylated. The capture oligo anneals to complementary sequence at the 3′ end of the CUG repeat RNA. Recombinant human MBNL1 is expressed as a fusion with the PL fragment of beta-galactosidase. PL is a 55 amino acid fragment of beta-galactosidase. […] After incubation with test compound, unbound MBNL1-PL is washed away (FIG. 33B). Next, the complementing fragment of beta-galactosidase is added to determine the amount of MBNL1-PL that continues to interact with (CUG)109 RNA and thereby is retained on the microtiter plate. The binding of complementing fragment of beta-galactosidase to PL reconstitutes its enzymatic activity. This activity is then determined by adding substrate to provide a fluorescence or chemiluminescence signal from active beta-galactosidase. […]
(CUG)109 transcripts are tethered to the surface of a streptavidin-coated microtiter plate using a capture oligonucleotide that is biotinylated. […] Recombinant human MBNL1 is expressed as a fusion with the PL fragment of beta-galactosidase. […] This activity is then determined by adding substrate to provide a fluorescence or chemiluminescence signal from active beta-galactosidase. […]

## CC[n+]1c(-c2ccccc2)c2cc(N)ccc2c2ccc(N)cc21 [EtBr, ethidium bromide]
  amount of MBNL1-PL retained on plate (beta-galactosidase activity): reduce the amount of MBNL1-PL retained on plate

— patent US9371527B2, “Compositions and methods related to protein displacement therapy for myotonic distrophy” (University of Rochester, priority 2006, dated 2016)
